{"source": "the supplement of paper PMC8728848", "assay_in_all_cases": "glycan array binding signal (z-score within array); higher = stronger binding", "settings_in_all_cases": "glycan notation: IUPAC condensed, linker removed", "key": {"[1]": {"target": "Fuc(a1-3)[Gal3S(b1-4)]GlcNAc", "procedure,_shortened": "(§1)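 Negative Z-scores can be read as non-binding. The Z-score is calculated within each array and then averaged across arrays of one protein sequence at different concentrations or buffers and across linkers. Arrays, 3228 in all, were curated from the Consortium for Functional Glycomics database and kept only where the protein sequence was available.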"}, "[2]": {"target": "Fuc(a1-3)[Gal3S(b1-4)]GlcNAc6S", "procedure,_shortened": "as §1"}, "[3]": {"target": "Fuc(a1-3)[GalNAc(b1-4)]GlcNAc", "procedure,_shortened": "as §1"}, "Fuc(a1-4)GlcNAc": {"target": "Fuc(a1-4)GlcNAc", "procedure,_shortened": "as §1"}, "Fuc(b1-3)GlcNAc": {"target": "Fuc(b1-3)GlcNAc", "procedure,_shortened": "as §1"}, "Gal(a1-2)Gal": {"target": "Gal(a1-2)Gal", "procedure,_shortened": "as §1"}, "Gal(a1-3)Gal": {"target": "Gal(a1-3)Gal", "procedure,_shortened": "as §1"}, "Gal(a1-3)Gal(b1-3)GlcNAc": {"target": "Gal(a1-3)Gal(b1-3)GlcNAc", "procedure,_shortened": "as §1"}, "[4]": {"target": "Gal(a1-3)Gal(b1-3)GlcNAc(b1-2)Man(a1-3)[Gal(a1-3)Gal(b1-3)GlcNAc(b1-2)Man(a1-6)]Man(b1-4)GlcNAc(b1-4)GlcNAc", "procedure,_shortened": "as §1"}, "[5]": {"target": "Gal(a1-3)Gal(b1-3)[Fuc(a1-4)]GlcNAc(b1-2)Man(a1-3)[Gal(a1-3)Gal(b1-3)[Fuc(a1-4)]GlcNAc(b1-2)Man(a1-6)]Man(b1-4)GlcNAc(b1-4)GlcNAc", "procedure,_shortened": "as §1"}, "Gal(a1-3)Gal(b1-4)Glc": {"target": "Gal(a1-3)Gal(b1-4)Glc", "procedure,_shortened": "as §1"}, "Gal(a1-3)Gal(b1-4)GlcNAc": {"target": "Gal(a1-3)Gal(b1-4)GlcNAc", "procedure,_shortened": "as §1"}, "[6]": {"target": "Gal(a1-3)Gal(b1-4)GlcNAc(b1-3)GalNAc", "procedure,_shortened": "as §1"}, "[7]": {"target": "Gal(a1-3)Gal(b1-4)[Fuc(a1-3)]GlcNAc", "procedure,_shortened": "as §1"}, "[8]": {"target": "Gal(a1-3)Gal(b1-4)[Fuc(a1-3)]GlcNAc(b1-2)Man(a1-3)[Gal(a1-3)Gal(b1-4)[Fuc(a1-3)]GlcNAc(b1-2)Man(a1-6)]Man(b1-4)GlcNAc(b1-4)GlcNAc", "procedure,_shortened": "as §1"}, "Gal(a1-3)GalNAc": {"target": "Gal(a1-3)GalNAc", "procedure,_shortened": "as §1"}, "[9]": {"target": "Gal(a1-3)[Gal(a1-4)]Gal(b1-4)GlcNAc", "procedure,_shortened": "as §1"}, "[10]": {"target": "Gal(a1-4)Gal(b1-3)GlcNAc(b1-2)Man(a1-3)[Gal(a1-4)Gal(b1-3)GlcNAc(b1-2)Man(a1-6)]Man(b1-4)GlcNAc(b1-4)GlcNAc", "procedure,_shortened": "as §1"}, "Gal(a1-4)Gal(b1-4)Glc": {"target": "Gal(a1-4)Gal(b1-4)Glc", "procedure,_shortened": "as §1"}, "Gal(a1-4)Gal(b1-4)GlcNAc": {"target": "Gal(a1-4)Gal(b1-4)GlcNAc", "procedure,_shortened": "as §1"}, "[11]": {"target": "Gal(a1-4)Gal(b1-4)GlcNAc(b1-2)Man(a1-3)[Gal(a1-4)Gal(b1-4)GlcNAc(b1-2)Man(a1-6)]Man(b1-4)GlcNAc(b1-4)GlcNAc", "procedure,_shortened": "as §1"}, "[12]": {"target": "Gal(a1-4)Gal(b1-4)GlcNAc(b1-3)Gal(b1-4)Glc", "procedure,_shortened": "as §1"}, "Gal(a1-4)GlcNAc": {"target": "Gal(a1-4)GlcNAc", "procedure,_shortened": "as §1"}, "Gal(a1-6)Glc": {"target": "Gal(a1-6)Glc", "procedure,_shortened": "as §1"}, "Gal(b1-2)Gal": {"target": "Gal(b1-2)Gal", "procedure,_shortened": "as §1"}, "Gal(b1-3)Gal": {"target": "Gal(b1-3)Gal", "procedure,_shortened": "as §1"}, "Gal(b1-3)Gal(b1-4)GlcNAc": {"target": "Gal(b1-3)Gal(b1-4)GlcNAc", "procedure,_shortened": "as §1"}, "[13]": {"target": "Gal(b1-3)Gal(b1-4)GlcNAc(b1-2)Man(a1-3)[Gal(b1-3)Gal(b1-4)GlcNAc(b1-2)Man(a1-6)]Man(b1-4)GlcNAc(b1-4)GlcNAc", "procedure,_shortened": "as §1"}, "Gal(b1-3)GalNAc": {"target": "Gal(b1-3)GalNAc", "procedure,_shortened": "as §1"}, "[14]": {"target": "Gal(b1-3)GalNAc(a1-3)[Fuc(a1-2)]Gal(b1-4)Glc", "procedure,_shortened": "as §1"}, "[15]": {"target": "Gal(b1-3)GalNAc(a1-3)[Fuc(a1-2)]Gal(b1-4)GlcNAc", "procedure,_shortened": "as §1"}, "[16]": {"target": "Gal(b1-3)GalNAc(b1-3)Gal(a1-4)Gal(b1-4)Glc", "procedure,_shortened": "as §1"}, "[17]": {"target": "Gal(b1-3)GalNAc(b1-4)Gal(b1-4)Glc", "procedure,_shortened": "as §1"}, "[18]": {"target": "Gal(b1-3)GalNAc(b1-4)[Neu5Ac(a2-3)]Gal(b1-4)Glc", "procedure,_shortened": "as §1"}, "Gal(b1-3)GlcNAc": {"target": "Gal(b1-3)GlcNAc", "procedure,_shortened": "as §1"}, "[19]": {"target": "Gal(b1-3)GlcNAc(a1-6)Gal(b1-4)GlcNAc", "procedure,_shortened": "as §1"}, "[20]": {"target": "Gal(b1-3)GlcNAc(b1-2)Man(a1-3)[Gal(b1-3)GlcNAc(b1-2)Man(a1-6)]Man(b1-4)GlcNAc(b1-4)GlcNAc", "procedure,_shortened": "as §1"}}, "note": "The other results are listed elsewhere or left out.", "data": [{"binder": "PEB3 (Campylobacter jejuni), Q0PBL7 (protein) MKKIITLFGACALAFSMANADVNLYGPGGPHTALKDIANKYSEKTGVKVNVNFGPQATWFEKAKKDADILFGASDQSALAIASDFGKDFNVSKIKPLYFREAIILTQKGNPLKIKGLKDLANKKVRIVVPEGAGKSNTSGTGVWEDMIGRTQDIKTIQNFRNNIVAFVPNSGSARKLFAQDQADAWITWIDWSKSNPDIGTAVAIEKDLVVYRTFNVIAKEGASKETQDFIAYLSSKEAKEIFKKYGWRE", "values": [{"measurement": "glycan array binding signal (z-score)", "setting": "[1]", "value": 0.309}, {"measurement": "glycan array binding signal (z-score)", "setting": "[2]", "value": 0.696}, {"measurement": "glycan array binding signal (z-score)", "setting": "[3]", "value": -0.565}, {"measurement": "glycan array binding signal (z-score)", "setting": "Fuc(a1-4)GlcNAc", "value": -0.82}, {"measurement": "glycan array binding signal (z-score)", "setting": "Fuc(b1-3)GlcNAc", "value": -0.162}, {"measurement": "glycan array binding signal (z-score)", "setting": "Gal(a1-2)Gal", "value": 0.019}, {"measurement": "glycan array binding signal (z-score)", "setting": "Gal(a1-3)Gal", "value": -0.384}, {"measurement": "glycan array binding signal (z-score)", "setting": "Gal(a1-3)Gal(b1-3)GlcNAc", "value": 0.021}, {"measurement": "glycan array binding signal (z-score)", "setting": "[4]", "value": 0.243}, {"measurement": "glycan array binding signal (z-score)", "setting": "[5]", "value": 4.25}, {"measurement": "glycan array binding signal (z-score)", "setting": "Gal(a1-3)Gal(b1-4)Glc", "value": 1.33}, {"measurement": "glycan array binding signal (z-score)", "setting": "Gal(a1-3)Gal(b1-4)GlcNAc", "value": -0.495}, {"measurement": "glycan array binding signal (z-score)", "setting": "[6]", "value": 0.06}, {"measurement": "glycan array binding signal (z-score)", "setting": "[7]", "value": 0.154}, {"measurement": "glycan array binding signal (z-score)", "setting": "[8]", "value": 0.06}, {"measurement": "glycan array binding signal (z-score)", "setting": "Gal(a1-3)GalNAc", "value": 0.696}, {"measurement": "glycan array binding signal (z-score)", "setting": "[9]", "value": -0.605}, {"measurement": "glycan array binding signal (z-score)", "setting": "[10]", "value": 1.73}, {"measurement": "glycan array binding signal (z-score)", "setting": "Gal(a1-4)Gal(b1-4)Glc", "value": -0.347}, {"measurement": "glycan array binding signal (z-score)", "setting": "Gal(a1-4)Gal(b1-4)GlcNAc", "value": -0.621}, {"measurement": "glycan array binding signal (z-score)", "setting": "[11]", "value": 1.86}, {"measurement": "glycan array binding signal (z-score)", "setting": "[12]", "value": -0.433}, {"measurement": "glycan array binding signal (z-score)", "setting": "Gal(a1-4)GlcNAc", "value": 0.1}, {"measurement": "glycan array binding signal (z-score)", "setting": "Gal(a1-6)Glc", "value": -0.482}, {"measurement": "glycan array binding signal (z-score)", "setting": "Gal(b1-2)Gal", "value": -0.787}, {"measurement": "glycan array binding signal (z-score)", "setting": "Gal(b1-3)Gal", "value": -1.46}, {"measurement": "glycan array binding signal (z-score)", "setting": "Gal(b1-3)Gal(b1-4)GlcNAc", "value": -1.14}, {"measurement": "glycan array binding signal (z-score)", "setting": "[13]", "value": -0.139}, {"measurement": "glycan array binding signal (z-score)", "setting": "Gal(b1-3)GalNAc", "value": 0.026}, {"measurement": "glycan array binding signal (z-score)", "setting": "[14]", "value": -0.242}, {"measurement": "glycan array binding signal (z-score)", "setting": "[15]", "value": 0.186}, {"measurement": "glycan array binding signal (z-score)", "setting": "[16]", "value": 0.116}, {"measurement": "glycan array binding signal (z-score)", "setting": "[17]", "value": -0.495}, {"measurement": "glycan array binding signal (z-score)", "setting": "[18]", "value": 0.437}, {"measurement": "glycan array binding signal (z-score)", "setting": "Gal(b1-3)GlcNAc", "value": -0.448}, {"measurement": "glycan array binding signal (z-score)", "setting": "[19]", "value": -0.42}, {"measurement": "glycan array binding signal (z-score)", "setting": "[20]", "value": 0.056}]}]}
